# Data: PubChem BioAssay AID1259354 (Paczesny and Yang Labs, IUPUI and University of Michigan, 2018)
# Sequences of proteins named here, by UniProt entry; tags and fusion partners are left off. A change or cut given only in a name is not applied to a line headed by its entry.
# UniProt Q01638: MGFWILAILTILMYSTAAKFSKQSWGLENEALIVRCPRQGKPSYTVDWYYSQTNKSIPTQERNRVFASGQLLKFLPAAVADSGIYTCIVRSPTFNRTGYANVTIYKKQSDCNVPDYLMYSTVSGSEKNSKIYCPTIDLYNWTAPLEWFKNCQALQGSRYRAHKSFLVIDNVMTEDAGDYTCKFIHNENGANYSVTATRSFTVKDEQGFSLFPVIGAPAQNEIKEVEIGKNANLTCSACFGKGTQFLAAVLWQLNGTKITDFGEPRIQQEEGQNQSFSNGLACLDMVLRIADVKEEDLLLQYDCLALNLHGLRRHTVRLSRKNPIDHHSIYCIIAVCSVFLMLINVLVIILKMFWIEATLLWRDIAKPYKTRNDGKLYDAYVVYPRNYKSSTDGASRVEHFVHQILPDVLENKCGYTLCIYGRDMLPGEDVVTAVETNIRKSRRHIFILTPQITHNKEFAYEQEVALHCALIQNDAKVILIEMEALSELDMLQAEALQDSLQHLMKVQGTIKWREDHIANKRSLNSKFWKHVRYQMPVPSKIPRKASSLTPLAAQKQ
# About 1,800 (2.3%) of roughly 78,000 compounds were called active. Inconclusive results, whose numbers are uncertain, are shown with a selection of clear calls. Cut-off read from the data, not from the text of the source: active = inhibition above about 30%; inconclusive = mostly about 10% to 28%; inactive = weaker than that.
# Molecular target: Interleukin-1 receptor-like 1 (Homo sapiens) (UniProt Q01638)
# Test: blocks human ST2 binding to IL-33, primary screen, biochemical, AlphaLISA (AID 1259354)
# Conditions: AlphaLISA ST2-Fc/biotin-IL-33 interaction, 1 h; at 17 µM, hits give high values
row,SMILES,inhibition
1,Clc1ccc(/C=C/c2ncc3ccccn23)cc1,inconclusive: 28%
2,Cc1nc(CNC(=O)c2cc(CC(C)C)nn2C)cs1,inactive
3,Cc1ccc(CN2CCN(C(=O)c3n[nH]c4c3CCC4)C(C)C2=O)cc1 (centres undefined),inactive
4,Cc1noc(C)c1-n1c(C2CCCCC2)n[nH]c1=O,inconclusive: 13%
5,CC(COc1ccccc1)NCCS(=O)(=O)N(C)C (centres undefined),inconclusive: 17%
6,Cc1ccc(CNC(=O)c2cnc3n(c2=O)CCS3)cc1,inactive
7,O=C(CCN1CCCCO1)N(Cc1ccc2c(c1)OCO2)C1CCCC1,inconclusive: 15%
8,N#C/C(=C\c1cccc(F)c1)c1nc(-c2ccc([N+](=O)[O-])cc2)cs1,inconclusive: 16%
9,Cc1ccc(-c2cc(O)c3c(c2)CN(C(=O)c2cccc(F)c2)CCO3)s1,inconclusive: 15%
10,CCCC(=O)Nc1cccc(C(=O)NCc2ccccc2-n2cccn2)c1,inconclusive: 26%
11,CCc1nc(C)sc1C(=O)N1C[C@@H]2C3CCC(CC3)[C@@H]2C1,inactive
12,N#CC1=C2SCN(Cc3ccccc3)CN2C(=O)CC1c1ccccc1 (centres undefined),inactive
13,Cc1ccnc(SCCn2c(N3CCCC3)nc3c2c(=O)n(C)c(=O)n3C)n1,inconclusive: 13%
14,CCc1cn[nH]c1C1CCN(C(=O)C2(c3ccc(OC)cc3)CC2)CC1,inconclusive: 16%
15,COc1ccc(CCC(=O)Nc2cc(N3CCCS3(=O)=O)ccc2OC)cc1,inactive
16,Cc1nc2cc(-c3ccccc3)nn2c(C)c1CCC(=O)NC(C)C,inactive
17,CCC(=O)N1N=C(c2ccccc2)CC1c1ccc(N(C)C)cc1 (centres undefined),inconclusive: 10%
18,CCn1cc(C(=O)NCCN(C)C)c2c3ccccc3n(C)c2c1=O,inactive
19,N.N.O=C([O-])C1(C(=O)[O-])CCC1.[Pt+4],inconclusive: 11%
20,COc1ccc(Cc2n[nH]c(=O)n2-c2ccc(OC)cc2C)cc1,inconclusive: 25%
21,O=C(NCc1cccs1)c1cc(-c2cccs2)nc2ccccc12,inconclusive: 18%
22,COC(=O)[C@@H]1Cc2ncn(C(C)C)c2CN1S(=O)(=O)Cc1ccccc1,inactive
23,O=C(NCCc1nc(-c2cccnc2)n[nH]1)c1nc2c(s1)CCCC2,inconclusive: 14%
24,CC1OC(O[C@H]2CC[C@@]3(C)C(CC[C@]4(C)C3CC=C3C5CC(C)(C)CC[C@]5(C(=O)OC5OC(CO)C(OC6OCC(OC7OCC(O)C(O)C7O)C(O)C6O)C(O)C5O)CC[C@]34C)C2(C)C)C(O)C(O)C1OC1OC(CO)C(O)C(OC2OCC(O)C(O)C2O)C1O (some centres undefined),inconclusive: 20%

row,SMILES,inhibition
1,O=C(COc1ccc([N+](=O)[O-])cc1)Nc1cccc(I)c1,inactive
2,O=[N+]([O-])c1ccc(CN2C[C@H](O)C[C@H]2c2nc(-c3ccc4c(c3)OCO4)no2)cc1,inconclusive: 10%
3,COC(=O)C(C)Oc1ccc2c(=O)c(Oc3cc(C)cc(C)c3)coc2c1 (centres undefined),inconclusive: 11%
4,O=C(Nc1ccc(Oc2ccc(NC(=O)c3ccco3)cc2)cc1)c1ccco1,inconclusive: 11%
5,C=C(C)CSC1=C(C#N)C(c2ccsc2)CC(=O)N1 (centres undefined),inconclusive: 20%
6,Cc1c(Cl)cccc1N=Cc1nc(-c2ccccc2F)oc1O,inconclusive: 18%
7,CN(Cc1cnc2c(-c3ccccc3)cnn2c1)Cc1noc2c1CCCC2,inconclusive: 24%
8,CCOC(=O)c1c(NC(=O)C(C)Oc2ccc(Cl)c(C)c2)sc(C)c1C (centres undefined),inactive
9,Nc1nc(-c2cc3cc(Br)ccc3oc2=O)cs1,inconclusive: 25%
10,COc1ccc(N(CC(=O)Nc2ccccc2F)S(=O)(=O)c2ccc(C)c([N+](=O)[O-])c2)cc1,inconclusive: 21%
11,CN1[C@@H](CCC(=O)N2CCOCC2)CNC(=O)[C@@H]2[C@H]1CCN2C1CCOCC1,inconclusive: 11%
12,CCC(C)OC(=O)C1=C(C)NC2=C(C(=O)C(C(=O)OC)C(C)C2)C1c1ccc2c(c1)OCO2 (centres undefined),inactive
13,COc1cc(CN2CCN(c3ccccc3)CC2)c([N+](=O)[O-])cc1OC,inconclusive: 26%
14,COC(=O)[C@@H]1Cc2ncn(C(C)C)c2CN1S(=O)(=O)c1ccc(C#N)cc1,active: 35%
15,COc1cccc(N(CC(=O)Nc2ccccc2C(=O)NCc2ccccc2)S(C)(=O)=O)c1,inconclusive: 20%
16,COc1cccc(-c2nc(C(F)(F)F)nc(C)c2C)c1F,inconclusive: 10%
17,CCSCCOC(=O)C1=C(C)NC(=O)NC1c1cccc(O)c1 (centres undefined),inactive
18,Cc1cccc(C(=O)N2CCOc3ccc(C(O)CCc4ccccc4)cc3C2)c1C (centres undefined),inconclusive: 21%
19,O=[N+]([O-])c1ccc(Sc2c(-c3ccccc3)nc3sccn23)cc1,active: 32%
20,Cc1cc(C)c(C)c(OCC(=O)N2CCCCCC2)c1,inconclusive: 13%
21,O=c1/c(=C/c2ccncc2)sc2n1CN(c1cccc(C(F)(F)F)c1)CN=2,inconclusive: 17%
22,Nc1ccc(-n2c(CCCO)nc3ccccc32)cn1,inconclusive: 20%
23,COc1cc(CN2CCCN(C)CC2)c([N+](=O)[O-])cc1OC,inconclusive: 13%
24,CCn1c(CC2CCN(C(=O)c3ccc(CN(C)C)o3)CC2)nn(C)c1=O,inactive

# Four of these compounds in another layout:
row	SMILES	inhibition
24	CC1OC(O[C@H]2CC[C@@]3(C)C(CC[C@]4(C)C3CC=C3C5CC(C)(C)CC[C@]5(C(=O)OC5OC(CO)C(OC6OCC(OC7OCC(O)C(O)C7O)C(O)C6O)C(O)C5O)CC[C@]34C)C2(C)C)C(O)C(O)C1OC1OC(CO)C(O)C(OC2OCC(O)C(O)C2O)C1O (some centres undefined)	inconclusive: 20%
1	O=C(COc1ccc([N+](=O)[O-])cc1)Nc1cccc(I)c1	inactive
2	O=[N+]([O-])c1ccc(CN2C[C@H](O)C[C@H]2c2nc(-c3ccc4c(c3)OCO4)no2)cc1	inconclusive: 10%
3	COC(=O)C(C)Oc1ccc2c(=O)c(Oc3cc(C)cc(C)c3)coc2c1 (centres undefined)	inconclusive: 11%

# (list continues)

row,SMILES,inhibition
1,COc1ccc(/C=C2/C=C(c3ccc(OC)c(OC)c3)OC2=O)cc1OC,inconclusive: 17%
2,OC(CN1CCCCCC1)CN(c1ccccc1)c1ccccc1 (centres undefined),inconclusive: 14%
3,CCOC(=O)c1c(NC(=O)C(C)Sc2cn(CC)c3ccccc23)sc2c1CCC2 (centres undefined),inconclusive: 14%
4,N#Cc1nc(COc2ccccc2Cl)oc1N1CCCCC1,active: 65%
5,CC1=CC(=O)C=C/C1=N/OC(=O)c1ccc(Cl)cc1,inactive
6,Cc1ccc2[nH]cc(-c3ccc(C(=O)NCCCc4ccccn4)cn3)c2c1,inactive
7,O=C(c1cccc(F)c1)N1CCN(c2ccc([N+](=O)[O-])c(NCc3ccco3)c2)CC1,inconclusive: 16%
8,CCOC(=O)N1CCC(=C2c3ccc(Cl)cc3CCc3cccnc32)CC1,inconclusive: 19%
9,Cc1ccc(N2CSC3=C(C#N)C(c4ccccc4Cl)CC(=O)N3C2)cc1 (centres undefined),inactive
10,Cc1cc(N2CCOCC2)nc2ccc(NC(=O)CCC(=O)NCCC3=CCCCC3)cc12,inactive
11,CCc1ccc(N2C(=O)C3C4C=CC(C4)C3C2=O)cc1 (centres undefined),inactive
12,CCN(CC)c1ccc(CN2CCN(C)CC2)cc1,active: 56%
13,COc1ccc(-c2noc([C@@H]3C[C@@H](O)CN3Cc3ccc(-c4ccccn4)cc3)n2)cc1,inconclusive: 13%
14,CC1=C/C(=N\OC(=O)c2ccc([N+](=O)[O-])cc2)C(Br)C(Br)C1=O (centres undefined),inconclusive: 12%
15,CC1(C)Cc2c(sc3ncn4nc(COc5ccccc5)nc4c23)C(C)(C)N1,inconclusive: 14%
16,O=C(NCC1OCCc2ccccc21)C(=O)Nc1ccccn1 (centres undefined),inconclusive: 16%
17,Cc1cc(Cn2cc3c4c(cccc42)[C@H](CC(C)C)N[C@H](C(=O)NCc2cncn2C)C3)no1,inconclusive: 23%
18,Cc1cc(Sc2ccccc2NC(=O)Nc2ccccc2)n2ncnc2n1,inconclusive: 13%
19,Nc1cc2c3c(cccc3n1)C(=O)c1ccccc1-2,active: 34%
20,O=C(C1c2ccccc2C(=O)N2CCc3ccccc3C12)N1CCN(Cc2ccccc2)CC1 (centres undefined),inconclusive: 18%
21,Cc1cc(C)n(-c2cc(N3CCN(C(=O)c4cccs4)CC3)ccc2[N+](=O)[O-])n1,inconclusive: 24%
22,O=S(=O)(NCc1ccccn1)c1cccc2cccnc12,inconclusive: 11%
23,Cc1ccc(-c2ccc(=O)n(CC(=O)O)n2)cc1,inactive
24,CSc1ncccc1C(=O)N(Cc1ccccn1)CC(C)C,inconclusive: 22%

row,SMILES,inhibition
1,c1cc(CN2CCSCC2)cs1,inconclusive: 13%
2,COC(=O)C1=C(NC(=O)c2cccc3ccccc23)CCS1,active: 44%
3,O=C(CC1Sc2ccc(C(F)(F)F)cc2NC1=O)NCc1ccccc1 (centres undefined),inconclusive: 11%
4,O=C(O)C1(O)CCN(c2ncc(Cl)cc2Cl)CC1,inactive
5,Cc1nn(Cc2c(Cl)cccc2Cl)c(C)c1NC(=O)c1noc2c1CCCC2,inconclusive: 18%
6,O=C(Nc1ccc(F)cc1)c1ccccc1[N+](=O)[O-],inconclusive: 24%
7,CCOc1ccc(-c2cn(-c3cccc(Cl)c3)c(=O)[nH]2)cc1Cl,inactive
8,CCN(CC)CC#CCN1CC(c2ccccc2)CC1=O (centres undefined),inactive
9,O=C1Nc2ccc(C(=O)O)c3c(C(=O)O)ccc1c23,inactive
10,Cc1ccc(NC(=O)CN2N=NC3C(=O)N(c4ccc(F)cc4)C(=O)C32)cc1C (centres undefined),inactive
11,COc1ccc(-c2csc(-c3cccnc3)n2)cc1F,inconclusive: 17%
12,CCn1ccc(C(=O)NCc2cccnc2Oc2ccc(C)nc2)n1,inconclusive: 12%
13,COc1ccc(S(=O)(=O)N(C)C2CCCCC2)cc1,inactive
14,COc1ccc2nc(N=C(N)NC(=O)c3ccc(F)cc3)nc(C)c2c1,inconclusive: 12%
15,Cc1cc2c(c(=O)[nH]1)C(=O)O/C2=C/c1cccc(F)c1,inconclusive: 29%
16,Cc1ccc(OCCOCCn2cnc3ccccc3c2=O)c([N+](=O)[O-])c1,inconclusive: 24%
17,C=CCn1c2ccccc2c2nnc(SCC(=O)Nc3cc(C)on3)nc21,inconclusive: 21%
18,COC(=O)c1c(NC(=O)COc2ccc(C(C)C)cc2)sc2c1CCC2,inactive
19,CC1=C(C(=O)OC2CCCCC2)C(c2ccccc2F)NC(=O)N1 (centres undefined),inconclusive: 14%
20,CCOc1ccc(C(=O)Nc2c(C)cccc2CC)cc1Cl,inconclusive: 13%
21,CN(CCCNC(=O)c1cc(-c2ccncc2)nc2ccccc12)C1CCCCC1,inconclusive: 16%
22,CC(C)Cn1cc(C(=O)N2CCC(C)CC2)c2c3ccccc3n(C)c2c1=O,inconclusive: 16%
